One test addresses T1, His-PipB (UniProt Q8ZQ59).
T1 sequence: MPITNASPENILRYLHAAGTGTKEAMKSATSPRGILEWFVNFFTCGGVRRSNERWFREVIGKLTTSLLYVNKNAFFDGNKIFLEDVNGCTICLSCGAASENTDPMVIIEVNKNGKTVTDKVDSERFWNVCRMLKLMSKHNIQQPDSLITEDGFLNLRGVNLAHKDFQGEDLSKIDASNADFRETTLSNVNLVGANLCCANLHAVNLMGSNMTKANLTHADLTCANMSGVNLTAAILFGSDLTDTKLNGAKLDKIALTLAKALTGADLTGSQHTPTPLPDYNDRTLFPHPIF
Description: pull-down; free IQGAP1 (GST cleaved by TEV protease) combined with resin-bound His-SseI or His-PipB in lysis/binding buffer, overnight at 4 °C; immunoblot with anti-IQGAP1 antibody; both purified.

By UniProt entry, the sequences of proteins in these tests, tags left out.
UniProt P46940: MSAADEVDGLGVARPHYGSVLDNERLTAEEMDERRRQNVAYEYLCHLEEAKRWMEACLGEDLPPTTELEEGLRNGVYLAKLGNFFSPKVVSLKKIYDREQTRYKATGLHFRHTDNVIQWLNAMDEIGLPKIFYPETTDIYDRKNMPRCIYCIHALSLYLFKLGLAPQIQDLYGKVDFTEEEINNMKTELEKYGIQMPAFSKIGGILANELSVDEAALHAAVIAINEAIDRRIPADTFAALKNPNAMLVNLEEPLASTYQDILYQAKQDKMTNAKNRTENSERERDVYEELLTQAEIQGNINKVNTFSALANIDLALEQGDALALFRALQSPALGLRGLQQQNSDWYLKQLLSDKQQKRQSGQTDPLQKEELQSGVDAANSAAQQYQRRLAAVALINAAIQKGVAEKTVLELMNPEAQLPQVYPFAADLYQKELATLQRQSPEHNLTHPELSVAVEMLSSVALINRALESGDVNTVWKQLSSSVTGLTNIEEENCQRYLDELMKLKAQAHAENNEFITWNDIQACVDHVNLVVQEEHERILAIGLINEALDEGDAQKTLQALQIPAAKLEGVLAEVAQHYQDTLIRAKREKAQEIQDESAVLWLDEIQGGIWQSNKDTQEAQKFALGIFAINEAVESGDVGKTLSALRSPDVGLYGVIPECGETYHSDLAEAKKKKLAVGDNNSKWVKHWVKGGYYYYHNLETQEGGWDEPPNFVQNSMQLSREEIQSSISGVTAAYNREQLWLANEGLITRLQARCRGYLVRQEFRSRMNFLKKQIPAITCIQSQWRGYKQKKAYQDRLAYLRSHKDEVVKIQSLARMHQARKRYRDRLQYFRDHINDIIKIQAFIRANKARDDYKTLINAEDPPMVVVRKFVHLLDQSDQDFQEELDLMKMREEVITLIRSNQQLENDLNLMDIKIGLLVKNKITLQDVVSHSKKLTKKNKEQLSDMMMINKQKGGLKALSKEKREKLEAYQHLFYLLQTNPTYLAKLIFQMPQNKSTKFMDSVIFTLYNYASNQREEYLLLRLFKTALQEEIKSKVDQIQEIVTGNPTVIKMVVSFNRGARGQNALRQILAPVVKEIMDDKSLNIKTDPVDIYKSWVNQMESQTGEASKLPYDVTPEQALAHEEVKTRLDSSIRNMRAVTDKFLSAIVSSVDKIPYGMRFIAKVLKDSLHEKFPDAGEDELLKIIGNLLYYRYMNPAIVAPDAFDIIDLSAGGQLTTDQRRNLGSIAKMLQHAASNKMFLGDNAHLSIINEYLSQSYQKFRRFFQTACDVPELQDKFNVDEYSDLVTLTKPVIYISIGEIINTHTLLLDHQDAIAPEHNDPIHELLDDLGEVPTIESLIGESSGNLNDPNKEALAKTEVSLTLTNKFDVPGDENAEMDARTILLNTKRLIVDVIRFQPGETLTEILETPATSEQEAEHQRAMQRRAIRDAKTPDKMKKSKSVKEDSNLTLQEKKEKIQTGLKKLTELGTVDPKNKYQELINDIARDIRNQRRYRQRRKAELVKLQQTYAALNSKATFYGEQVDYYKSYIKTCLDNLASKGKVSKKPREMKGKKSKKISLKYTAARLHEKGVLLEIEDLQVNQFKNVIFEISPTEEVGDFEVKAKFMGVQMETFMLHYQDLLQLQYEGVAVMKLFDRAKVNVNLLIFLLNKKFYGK

In test [1] the target is T2, His-tagged SseI (WT) (S. typhimurium SL1344) (UniProt Q8ZQ79).
T2 sequence: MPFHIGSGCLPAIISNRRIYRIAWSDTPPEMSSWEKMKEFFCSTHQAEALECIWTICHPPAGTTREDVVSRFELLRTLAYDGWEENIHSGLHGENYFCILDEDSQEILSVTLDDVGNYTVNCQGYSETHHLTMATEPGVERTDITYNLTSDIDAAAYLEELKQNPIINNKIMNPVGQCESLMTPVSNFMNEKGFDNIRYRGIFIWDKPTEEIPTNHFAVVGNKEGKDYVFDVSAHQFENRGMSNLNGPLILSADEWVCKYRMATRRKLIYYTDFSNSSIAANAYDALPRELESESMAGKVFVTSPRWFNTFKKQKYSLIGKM
The test is described as above.

For test [2], the target named is GST-IQGAP1 (UniProt P46940). Description: pull-down; increasing amounts of E. coli extracts over-expressing His-tagged SseI proteins (WT and C178A) incubated with GST or GST-IQGAP1, co-precipitated with GSH-agarose resin; immunoblot with anti-His antibody; only the target purified. In general terms: Immunoblotting shows a protein as a band on a membrane.
Test [3] addresses GST-IQGAP1 (UniProt P46940). Description: pull-down; resin-bound GST-IQGAP1 (or GST alone) on GSH-resin incubated with free purified His-SseI proteins overnight at 4 °C; washed 5 times with lysis/binding buffer; immunoblot with anti-His tag antibody; both purified.
For test [4], the target named is T3, cya-tagged SseI (S. typhimurium SL1344) (UniProt Q8ZQ79).
T3 sequence: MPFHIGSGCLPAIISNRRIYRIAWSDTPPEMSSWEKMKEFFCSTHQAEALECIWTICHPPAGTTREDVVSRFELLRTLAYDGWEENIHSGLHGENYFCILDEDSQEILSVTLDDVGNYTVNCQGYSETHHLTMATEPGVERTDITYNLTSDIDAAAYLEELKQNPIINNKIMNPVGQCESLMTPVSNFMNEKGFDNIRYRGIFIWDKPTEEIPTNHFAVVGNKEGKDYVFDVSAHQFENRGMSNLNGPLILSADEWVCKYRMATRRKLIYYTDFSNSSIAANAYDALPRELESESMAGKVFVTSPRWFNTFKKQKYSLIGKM
Description: co-IP; BMDM (caspase-1-/-) infected (MOI of 25) with S. typhimurium with or without psseI-cya; at 6h proteins immunoprecipitated with anti-CyaA antibody and immunoblotted for IQGAP1 or TRIP6.

Results are given in words; binding and its absence hold for the method and conditions named. For some assays here: Binding seen in cells or lysates may run through a third protein. Some entries that bind do so weakly or less than the wild type. Where a sequence is shown, tags or fusion partners need not be part of it.

Take “free IQGAP1 (from UniProt P46940 1-1657)”: the binding result in the test with His-PipB was “no binding”; in test [1], “binds”.

B1: His-tagged SseI (WT) (protein, UniProt Q8ZQ79 1-322)
chain: MPFHIGSGCLPAIISNRRIYRIAWSDTPPEMSSWEKMKEFFCSTHQAEALECIWTICHPPAGTTREDVVSRFELLRTLAYDGWEENIHSGLHGENYFCILDEDSQEILSVTLDDVGNYTVNCQGYSETHHLTMATEPGVERTDITYNLTSDIDAAAYLEELKQNPIINNKIMNPVGQCESLMTPVSNFMNEKGFDNIRYRGIFIWDKPTEEIPTNHFAVVGNKEGKDYVFDVSAHQFENRGMSNLNGPLILSADEWVCKYRMATRRKLIYYTDFSNSSIAANAYDALPRELESESMAGKVFVTSPRWFNTFKKQKYSLIGKM
As for B1, the binding entry with GST-IQGAP1 [2] and in the test with GST-IQGAP1 [3] was “binds” in each case.

B2: TRIP6, endogenous in BMDM (protein, UniProt Q9Z1Y4 1-480)
chain: MSGPTWLPPKQPEPSRLPQGRSLPRGALGPPTAHGATLQPHPRVNFCPLPPEHCYQPPGVPEDRGPTWVGSHGTPQRLQGLPPDRGIIRPGSLDAEIDSLTSMLADLDGGRSHAPRRPDRQAFEAPPPHAYRGGSLKPSGGAVPTPMLPASHYGGPTPASYATASTPAGPAFPVQVKVAQPVRGCGLPRRGASQASGPLPGPHFPLTGRGEVWGAGYRSHREPGPGVPEGPSGVHIPAGGGRGGGHEPQGPLGQPPEEELERLTKKLVHDMSHPPSGEYFGRCGGCGEDVVGDGAGVVALDRVFHIGCFVCSTCRAQLRGQHFYAVERRAYCESCYVATLEKCSTCSEPILDRILRAMGKAYHPGCFTCVVCHRGLDGIPFTVDATSQIHCIEDFHRKFAPRCSVCGGAIMPEPGQEETVRIVALDRSFHIGCYKCEECGLLLSSEGECQGCYPLDGHILCKACSAWRIQELSATVTTDC
On to B2, for which the binding entry in test [4] is given as “no binding”.

The record behind these values is article PMC2777311.
